This passage reports binding results from patent publication US20030219740A1.

By UniProt entry, the sequences of proteins in these tests, tags left out. Where a name states a change or a piece, a line headed by the entry shows the natural chain unless it says otherwise.
UniProt P04386: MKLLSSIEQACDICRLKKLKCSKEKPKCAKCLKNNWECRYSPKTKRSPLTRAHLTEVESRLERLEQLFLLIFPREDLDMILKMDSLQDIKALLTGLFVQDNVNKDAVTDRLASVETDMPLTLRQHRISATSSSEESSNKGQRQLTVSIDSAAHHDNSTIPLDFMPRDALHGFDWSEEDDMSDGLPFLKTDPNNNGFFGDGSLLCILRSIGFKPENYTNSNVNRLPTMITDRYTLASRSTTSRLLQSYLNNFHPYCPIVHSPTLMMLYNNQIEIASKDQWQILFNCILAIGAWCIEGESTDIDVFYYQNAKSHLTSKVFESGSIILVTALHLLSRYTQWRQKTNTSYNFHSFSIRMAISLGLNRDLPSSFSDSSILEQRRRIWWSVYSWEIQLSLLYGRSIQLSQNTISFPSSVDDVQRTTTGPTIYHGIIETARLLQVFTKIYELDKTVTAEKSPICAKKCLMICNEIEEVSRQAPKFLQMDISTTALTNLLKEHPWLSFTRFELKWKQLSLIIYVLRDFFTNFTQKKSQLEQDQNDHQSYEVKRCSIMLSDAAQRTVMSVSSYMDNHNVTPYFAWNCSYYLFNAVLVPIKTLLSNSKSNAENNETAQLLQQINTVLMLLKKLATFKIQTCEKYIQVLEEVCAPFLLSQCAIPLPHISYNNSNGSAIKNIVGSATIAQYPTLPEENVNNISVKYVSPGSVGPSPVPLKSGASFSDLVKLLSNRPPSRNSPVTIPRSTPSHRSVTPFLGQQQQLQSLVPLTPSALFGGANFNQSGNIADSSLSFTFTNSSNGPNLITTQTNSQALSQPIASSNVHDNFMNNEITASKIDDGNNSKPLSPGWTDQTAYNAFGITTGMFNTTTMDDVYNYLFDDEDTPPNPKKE

The chains are these.
B1: id1 (GAL4-AD library fusion) (protein, UniProt P41134 1-155, looked up, not shown: large carriers)
chain: MKVASGSTATAAAGPSCALKAGKTASGAGEVVRCLSEQSVAISRCAGGAGARLPALLDEQQVNVLLYDMNGCYSRLKELVPTLPQNRKVSKVEILQHVIDYIRDLQLELNSESEVGTPGGRGLPVRAPLSTLNGEISALTAEAACVPADDRILCR
B2: id3 (GAL4-AD library fusion) (protein, UniProt Q02535 1-119, looked up, not shown: large carriers)
chain: MKALSPVRGCYEAVCCLSERSLAIARGRGKGPAAEEPLSLLDDMNHCYSRLRELVPGVPRGTQLSQVEILQRVIDYILDLQVVLAEPAPGPPDGPHLPIQTAELTPELVISNDKRSFCH
B3: id2 (GAL4-AD library fusion) (protein, UniProt Q02363 1-134, looked up, not shown: large carriers)
chain: MKAFSPVRSVRKNSLSDHSLGISRSKTPVDDPMSLLYNMNDCYSKLKELVPSIPQNKKVSKMEILQHVIDYILDLQIALDSHPTIVSLHHQRPGQNQASRTPLTTLNTDISILSLQASEFPSELMSNDSKALCG

No constants are given. Whether binding was seen depends on the method and setting. Some results given as binding are weak or reduced against the parent protein; the word gives no strength. Sequences can lack the tags named with a protein.

In this assay the target is GAL4-BD fusion of a fragment of the E12 gene consisting of nucleotides 1528-1962 that encode the bHLH motif (UniProt P04386). As to the kind of experiment: yeast two-hybrid screen (HIS3 selection, β-galactosidase filter assay).
In the case of B1, the binding result is given as “binds”.

Turning to B2, the binding entry is “binds”. B3: the binding result is reported as “binds”.
